Values quoted from earlier work as cited in patent publication US11857520B2, “Therapeutic composition of intranasal lidocaine” (Nortic Holdings Inc., priority 2018, dated 2024).
Some of these results come from one statement about several compounds together. At least one compound was matched to its structure with a doubt left.

Conditions: generally recognized

## COC(=O)[C@H]1[C@@H](OC(=O)c2ccccc2)C[C@@H]2CC[C@H]1N2C [cocaine]
  duration of action: 0.5 to 1 h
